PubChem BioAssay AID720505, Drosophila RNAi Screening Center | 2013

- Assay: 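Fly regulators or components of the CRAC channel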 (primary screen)
- System: Drosophila S2R+ cells
- Knock-down reagent: long dsRNA against Drosophila genes
- Challenge: thapsigargin (2 µM) in calcium-free buffer to empty internal stores, then 2 mM calcium added back
- Measured: 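Stores emptied by 2 µM thapsigargin without calcium, then 2 mM calcium re-added; fluo-4 fluorescence followed by FLIPR in 384-well plates, per-well averaged endpoint, raw; two screen passes, some wells retested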
- Scale: calcium signal and retest calcium signal: higher = more calcium entry after store depletion
- Rule for the call: 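About 1500 genes called as lowering calcium entry, by varying amounts, judged against per-plate control wells with STIM1 as positive and Rho1 as negative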
- Meaning of the calls: active = called as lowering calcium entry; inactive = not called
The deposit covers about 20,000 reagents; this is an unselected part of those that have a named target and a result. Of all reagents, about 2,100 (10%) got an active call. 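Raw plate signals without normalisation; calls rest on control-based scores that were not deposited; replicate 2 separates called from uncalled poorly.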 Unmarked entries are inactive. Reagents against one gene are numbered here. A plus sign joins genes that one reagent is predicted to hit. Not stated in the record: the amount of reagent, the time to read-out.

predicted target	reagent	calcium signal, replicate 1	calcium signal, replicate 2	retest calcium signal, replicate 1	retest calcium signal, replicate 2
Nup358 (Nucleoporin 358kD)	1	259	163		
CG14142	1	88.4	102		
tra2 (transformer 2)	1	140	159		
CG10459	1	103	166		
CG10459	2	95.2	214		
SmydA-3 (SET and MYND domain containing, arthropod-specific, member 3)	1	158	171		
SmydA-3 (SET and MYND domain containing, arthropod-specific, member 3)	2	131	191		
conv (convoluted)	1	115	79.6		
CG42260	1	100	145		
CG42260	2	123	112		
l(3)S084402 (retired record)	1	99.3	89.8		
Gr2a (Gustatory receptor 2a)	1	81.3	120		
CG13071	1	91.8	134		
CG32801	1	109	165		
CG10591	1	63.5 (active)	111		
lectin-29Ca	1	169	160		
CG2201	1	185	84.3		
CG31643	1	98.7	96.7		
CG10738	1	84.3	112		
Gmppb (GDP-mannose pyrophosphorylase B)	1	99.8	136		
CG8028	1	198	94.9		
CG17883	1	82.6	124		
CG12177	1	111	82.4	7136	105
CG12177	2	184	104		
CG15046	1	84.5	119		
NdufA3 (NADH:ubiquinone oxidoreductase subunit A3)	1	64.5	79.9		
Cpr65Ea (Cuticular protein 65Ea)	1	89.8	83.5		
CG1773	1	163	90.4		
Patj	1	176	106		
RpL4 (Ribosomal protein L4)	1	72.5	123		
CG5181	1	151	216		
Mst84B (Male-specific transcript 84B)	1	118	168		
RAF2 (RING-associated factor 2)	1	147	102		
RAF2 (RING-associated factor 2)	2	146	204		
ph-d (polyhomeotic distal)	1	76.7	129		
ph-d (polyhomeotic distal)	2	104	142		
JMJD7 (Jumonji domain containing 7)	1	120	153		
Acsx2 (Acyl-CoA synthetase X2)	1	161	152		
CG9953	1	76.3	84.5		
CG13813	1	62.1 (active)	123		
CG42327	1	126	111		
CG42327	2	153	95.5		
CG42327	3	109	145		
mas (masquerade)	1	64.3 (active)	112		
IscU (Iron-sulfur cluster assembly enzyme)	1	119	162		
CG42269	1	53.8 (active)	53		
CG42269	2	73.8	71.7		
Rga + asRNA:ASTR	1	152	172		
Ets97D (Ets at 97D)	1	197	207		
Vha16-4 (Vacuolar H[+] ATPase 16kD subunit 4)	1	213	99.3		
CG5335	1	72.8 (active)	150		
CG7512	1	96.9	95.5		
CG11378	1	104	138		
Gr57a (Gustatory receptor 57a)	1	72.1	93.9		
Sgp (Sgroppino)	1	79.6	84.5		
Lcp2 (Larval cuticle protein 2)	1	129	168		
naz (nazgul)	1	207	130		
naz (nazgul)	2	136	162		
Synj (Synaptojanin)	1	99.3	119		
CG2061	1	115	87.7		
Grp170 (Grp170 co-chaperone)	1	122	163		
elgi (early girl)	1	156	82.3		
Jon99Ciii (Jonah 99Ciii)	1	142	139		
CG14285	1	157	129		
CG13984	1	56 (active)	134		
CG3348	1	151	121		
Tim17a1	1	137	132		
CG14218	1	205	93.2	6405	181
CG4709	1	85.7	122		
Osi20 (Osiris 20)	1	129	177		
CG30269	1	94.8	219		
CG31093	1	173	136		
Nhe2 (Na[+]/H[+] hydrogen exchanger 2)	1	169	89.7		
Nhe2 (Na[+]/H[+] hydrogen exchanger 2)	2	68.7	162		
Lip2 (Lipase 2)	1	78.7 (active)	108		
Lip2 (Lipase 2)	2	91.2	88		
CG31265	1	163	176		
Moe (Moesin)	1	121	136		
CG9555	1	107	140		
Rac2	1	79.7	51.5		
CG10481	1	118	106		
EloC (Elongin C)	1	135	132		
Pak3	1	120	227		

Active calls (from the list above):
predicted target	reagent	calcium signal, replicate 1	calcium signal, replicate 2	retest calcium signal, replicate 1	retest calcium signal, replicate 2
CG10591	1	63.5 (active)	111		
CG13813	1	62.1 (active)	123		
mas (masquerade)	1	64.3 (active)	112		
CG42269	1	53.8 (active)	53		
CG5335	1	72.8 (active)	150		
CG13984	1	56 (active)	134		
Lip2 (Lipase 2)	1	78.7 (active)	108		
